Results deposited as PubChem BioAssay AID1159578 (Peter MacCallum Cancer Centre, 2015).
Aim: 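siRNA pools altering how lymphatic endothelial cells close a scratch wound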 (primary screen). Cell system: human lymphatic endothelial cells. Reagents: siRNA pool against human genes, 40 nM. Time to read-out: 48 h after transfection. Read-out: 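Cells stained with dye and imaged after a scratch; covered wound area and nuclei counted, duplicates averaged, migration set against mock wells and turned into a robust z-score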. Reading the numbers: migration robust z-score: higher = faster migration into the scratch; nuclei per well: higher = more cells in the well. Call rule: 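Pools averaging fewer than 3300 nuclei are never called; remaining pools count as changed when migration robust z lies outside -2 to 2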. Calls: active = migration changed; inactive = no migration change, or too few cells.
This is a random part of about 18,000 reagents tested. About 1,030 of them (5.7%) were called active. 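Inactive calls also include pools with fewer than 3300 nuclei, whose migration was not assessed.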 Raw values are not corrected between plates. Further read-outs or replicates are left out here.

HSP90AA1 (heat shock protein 90 alpha family class A member 1) — migration robust z-score: -1.92; nuclei per well, duplicate mean: 5743; activity call: inactive
EPS15L1 (epidermal growth factor receptor pathway substrate 15 like 1) — migration robust z-score: 1.49; nuclei per well, duplicate mean: 5918; activity call: inactive
TCEAL2 (transcription elongation factor A like 2) — migration robust z-score: -0.41; nuclei per well, duplicate mean: 5680; activity call: inactive
EMCN (endomucin) — migration robust z-score: 0.24; nuclei per well, duplicate mean: 6671; activity call: inactive
B4GALT4 (beta-1,4-galactosyltransferase 4) — migration robust z-score: 0.44; nuclei per well, duplicate mean: 6753; activity call: inactive
TSC22D2 (TSC22 domain family member 2) — migration robust z-score: -0.5; nuclei per well, duplicate mean: 6266; activity call: inactive
LARS2 (leucyl-tRNA synthetase 2, mitochondrial) — migration robust z-score: 0.21; nuclei per well, duplicate mean: 4949; activity call: inactive
CD209 (CD209 molecule) — migration robust z-score: 0.02; nuclei per well, duplicate mean: 6028; activity call: inactive
APOE (apolipoprotein E) — migration robust z-score: -2.28; nuclei per well, duplicate mean: 6351; activity call: active
REC114 (REC114 meiotic recombination protein) — migration robust z-score: -0.33; nuclei per well, duplicate mean: 6292; activity call: inactive
SIGLEC15 (sialic acid binding Ig like lectin 15) — migration robust z-score: -0.89; nuclei per well, duplicate mean: 5864; activity call: inactive
CCDC74B (coiled-coil domain containing 74B) — migration robust z-score: -2.25; nuclei per well, duplicate mean: 3751; activity call: active

Hits, of those listed so far:
APOE (apolipoprotein E) — migration robust z-score: -2.28; nuclei per well, duplicate mean: 6351; activity call: active
CCDC74B (coiled-coil domain containing 74B) — migration robust z-score: -2.25; nuclei per well, duplicate mean: 3751; activity call: active
